From PMC10439915, “Development of an interfering peptide M1-20 with potent anti-cancer effects by targeting FOXM1” (Cell Death & Disease, 2023)
Construct, isoform or probe ends are uncertain for at least one entry. At least one verdict was read from the data and is not stated in words by the source.

Test system: His-FOXM1
Test: EMSA
Conditions: 2 uM protein, 50 nM probe, unlabeled cold probe used as specificity competitor; 20 mM Tris-Cl pH 7.6, 50 mM KCl, 10% glycerol, 0.5 mM EDTA, 0.2 mM DTT, 30 min on ice; 4% native PAGE in 0.5x TBE; recombinant protein; protein details: His

“TTTGTTTATTTGTTTGTTTATTTG (double strand) [FAM-labeled FOXM1 EMSA probe]”: binds.
